These results are taken from PMC5450233.

By UniProt entry, the sequences of proteins in these tests, tags left out. Where a name states a change or a piece, a line headed by the entry shows the natural chain unless it says otherwise. Residues count along the entry.
UniProt P56536, residues 815-955: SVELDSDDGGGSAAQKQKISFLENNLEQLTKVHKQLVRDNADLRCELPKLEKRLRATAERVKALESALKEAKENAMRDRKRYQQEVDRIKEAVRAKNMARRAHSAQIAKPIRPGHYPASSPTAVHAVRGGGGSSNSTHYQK
UniProt O94985: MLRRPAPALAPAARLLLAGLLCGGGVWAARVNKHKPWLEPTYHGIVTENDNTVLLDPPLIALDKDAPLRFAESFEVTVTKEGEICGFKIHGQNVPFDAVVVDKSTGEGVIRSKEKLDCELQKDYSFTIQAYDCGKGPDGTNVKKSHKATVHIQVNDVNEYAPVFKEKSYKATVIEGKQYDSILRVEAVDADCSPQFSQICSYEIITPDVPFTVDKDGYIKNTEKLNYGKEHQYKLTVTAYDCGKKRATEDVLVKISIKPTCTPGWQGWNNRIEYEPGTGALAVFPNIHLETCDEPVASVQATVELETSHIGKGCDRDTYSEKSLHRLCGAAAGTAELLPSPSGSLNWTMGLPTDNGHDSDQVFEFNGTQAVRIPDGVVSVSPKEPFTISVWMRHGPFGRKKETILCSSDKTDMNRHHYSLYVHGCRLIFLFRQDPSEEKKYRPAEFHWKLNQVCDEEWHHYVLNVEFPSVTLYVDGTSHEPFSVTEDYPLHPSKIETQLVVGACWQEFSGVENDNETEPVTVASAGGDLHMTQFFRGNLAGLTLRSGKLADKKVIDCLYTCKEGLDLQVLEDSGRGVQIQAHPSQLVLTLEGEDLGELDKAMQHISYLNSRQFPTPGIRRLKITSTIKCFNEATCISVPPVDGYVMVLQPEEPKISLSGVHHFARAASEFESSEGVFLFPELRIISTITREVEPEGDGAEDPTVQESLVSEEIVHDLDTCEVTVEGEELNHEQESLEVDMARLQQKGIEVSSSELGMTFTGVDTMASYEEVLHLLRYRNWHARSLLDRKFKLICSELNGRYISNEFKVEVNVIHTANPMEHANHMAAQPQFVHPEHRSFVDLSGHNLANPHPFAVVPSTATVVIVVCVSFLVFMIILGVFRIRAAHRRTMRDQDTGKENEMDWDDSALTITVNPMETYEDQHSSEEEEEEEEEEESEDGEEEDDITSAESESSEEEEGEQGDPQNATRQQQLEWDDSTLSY

These are yes or no findings as the source states them, for the method shown. In cells and extracts the contact can be indirect. For some assays here: Binding can be weak; no strength is given. For some assays here: Tags and fused reporters may be left off the sequences shown.

For assay [1], the target named is GST–KHC(815-955) (rat) (UniProt P56536). Put plainly: pull-down; GST–KHC tail fusion (0.25 nmol) on glutathione–Sepharose beads incubated 1.5 h with 293T cell extract expressing GFP fusion proteins; 25 mM HEPES pH 7.5, 150 mM NaCl, 0.1% NP-40, Triton X-100; western blot; only the target purified. For orientation: A western blot detects proteins with antibodies after separation by electrophoresis.

Assay [2] addresses T1, GST–SKIP(1-310) (UniProt Q8IWE5).
T1 sequence: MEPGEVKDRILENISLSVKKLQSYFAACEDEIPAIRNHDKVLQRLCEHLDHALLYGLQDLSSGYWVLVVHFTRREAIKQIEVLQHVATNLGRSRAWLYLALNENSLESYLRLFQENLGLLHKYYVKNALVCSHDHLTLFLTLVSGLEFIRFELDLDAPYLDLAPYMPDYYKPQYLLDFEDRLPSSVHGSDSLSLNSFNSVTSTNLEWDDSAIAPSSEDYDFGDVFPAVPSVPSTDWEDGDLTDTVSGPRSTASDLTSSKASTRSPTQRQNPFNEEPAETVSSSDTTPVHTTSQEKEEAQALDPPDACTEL
Put plainly: pull-down; GST–SKIP(1-310) on glutathione beads incubated with extracts of 293T cells expressing KHC (mCit- or HA-tagged) alone, without KLC2; western blot; only the target purified.

With “GFP–CSTN1(879-971) (from UniProt O94985) (domain or fragment)”, the binding entry in assay [1] is recorded as “no binding”. Regarding HA–KHC IAKmut (from UniProt P56536), the binding entry in assay [2] was “binds”.
